Data published in PMC8362855.
Results are given in words; binding and its absence hold for the method and conditions named. Binding seen in cells or lysates may run through a third protein. Some entries that bind do so weakly or less than the wild type.

The chains behind the UniProt entries cited, without tags or fusion partners.
UniProt P09874: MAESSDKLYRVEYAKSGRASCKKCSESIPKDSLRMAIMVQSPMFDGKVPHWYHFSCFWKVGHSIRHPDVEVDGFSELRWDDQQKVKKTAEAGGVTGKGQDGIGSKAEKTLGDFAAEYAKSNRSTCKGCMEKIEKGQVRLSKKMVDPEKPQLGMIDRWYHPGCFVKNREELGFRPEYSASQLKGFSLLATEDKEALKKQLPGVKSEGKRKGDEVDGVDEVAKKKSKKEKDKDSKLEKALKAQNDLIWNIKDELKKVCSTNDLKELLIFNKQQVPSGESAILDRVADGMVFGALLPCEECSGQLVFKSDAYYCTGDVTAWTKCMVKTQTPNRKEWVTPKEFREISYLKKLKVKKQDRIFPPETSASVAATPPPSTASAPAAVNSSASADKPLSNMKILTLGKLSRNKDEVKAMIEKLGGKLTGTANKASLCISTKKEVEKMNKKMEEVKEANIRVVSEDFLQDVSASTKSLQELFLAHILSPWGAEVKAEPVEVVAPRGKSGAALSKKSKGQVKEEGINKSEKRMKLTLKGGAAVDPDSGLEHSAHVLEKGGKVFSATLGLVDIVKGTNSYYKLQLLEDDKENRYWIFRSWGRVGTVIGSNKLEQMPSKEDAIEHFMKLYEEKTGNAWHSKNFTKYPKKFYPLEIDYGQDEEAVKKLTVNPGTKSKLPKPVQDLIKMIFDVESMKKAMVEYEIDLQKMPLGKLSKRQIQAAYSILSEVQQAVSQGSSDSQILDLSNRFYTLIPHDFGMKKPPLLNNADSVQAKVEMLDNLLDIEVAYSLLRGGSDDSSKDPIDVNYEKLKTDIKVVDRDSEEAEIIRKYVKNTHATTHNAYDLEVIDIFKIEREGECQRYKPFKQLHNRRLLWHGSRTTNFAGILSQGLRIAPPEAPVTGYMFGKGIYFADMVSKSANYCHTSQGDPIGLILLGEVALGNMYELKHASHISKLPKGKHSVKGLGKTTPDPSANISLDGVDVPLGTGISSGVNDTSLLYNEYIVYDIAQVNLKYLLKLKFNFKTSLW

Molecular target: poly (ADP-ribose) polymerase-1 (UniProt P09874)
Test: co-IP; coimmunoprecipitation of VDR and PARP1 (Figure 5J); sample, precipitating antibody and conditions not described

binding: binds
B1: vitamin D receptor (receptor, UniProt P11473 1-427)
chain: MEAMAASTSLPDPGDFDRNVPRICGVCGDRATGFHFNAMTCEGCKGFFRRSMKRKALFTCPFNGDCRITKDNRRHCQACRLKRCVDIGMMKEFILTDEEVQRKREMILKRKEEEALKDSLRPKLSEEQQRIIAILLDAHHKTYDPTYSDFCQFRPPVRVNDGGGSHPSRPNSRHTPSFSGDSSSSCSDHCITSSDMMDSSSFSNLDLSEEDSDDPSVTLELSQLSMLPHLADLVSYSIQKVIGFAKMIPGFRDLTSEDQIVLLKSSAIEVIMLRSNESFTMDDMSWTCGNQDYKYRVSDVTKAGHSLELIEPLIKFQVGLKKLNLHEEEHVLLMAICIVSPDRPGVQDAALIEAIQDRLSNTLQTYIRCRHPPPGSHLLYAKMIQKLADLRSLNEEHSKQYRCLSFQPECSMKLTPLVLEVFGNEIS
